Publication doi:10.1101/2020.11.04.368498
Like-named read-outs stand apart in the source and are kept apart here. No constants are given. Whether binding was seen depends on the method and setting. Binding seen in cells or lysates may run through a third protein. These calls come from enrichment with a bait or labelling near it, and not all partners need be listed. For some assays here: Sequences can lack the tags named with a protein.

The chains behind the UniProt entries cited, without tags or fusion partners.
UniProt Q99459: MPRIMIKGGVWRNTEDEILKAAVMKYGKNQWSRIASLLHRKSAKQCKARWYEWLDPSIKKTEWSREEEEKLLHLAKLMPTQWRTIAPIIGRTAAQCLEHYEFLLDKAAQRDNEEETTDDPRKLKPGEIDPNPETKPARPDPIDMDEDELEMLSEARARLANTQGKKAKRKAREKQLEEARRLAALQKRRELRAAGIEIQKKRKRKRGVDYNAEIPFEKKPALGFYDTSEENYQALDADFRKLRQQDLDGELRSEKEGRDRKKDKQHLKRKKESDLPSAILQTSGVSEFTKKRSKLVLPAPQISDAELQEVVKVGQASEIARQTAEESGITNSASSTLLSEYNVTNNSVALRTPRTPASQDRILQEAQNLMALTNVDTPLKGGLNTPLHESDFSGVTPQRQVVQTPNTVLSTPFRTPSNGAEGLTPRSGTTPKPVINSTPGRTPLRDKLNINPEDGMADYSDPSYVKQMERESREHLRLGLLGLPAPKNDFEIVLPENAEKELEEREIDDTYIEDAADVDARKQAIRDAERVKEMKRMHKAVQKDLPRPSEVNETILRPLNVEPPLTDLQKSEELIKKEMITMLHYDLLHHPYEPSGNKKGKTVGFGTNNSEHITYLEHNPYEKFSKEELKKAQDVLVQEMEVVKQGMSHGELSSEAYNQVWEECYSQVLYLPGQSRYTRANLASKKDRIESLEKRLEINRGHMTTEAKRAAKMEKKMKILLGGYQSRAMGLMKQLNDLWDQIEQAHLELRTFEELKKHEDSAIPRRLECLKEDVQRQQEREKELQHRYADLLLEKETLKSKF
UniProt P17844: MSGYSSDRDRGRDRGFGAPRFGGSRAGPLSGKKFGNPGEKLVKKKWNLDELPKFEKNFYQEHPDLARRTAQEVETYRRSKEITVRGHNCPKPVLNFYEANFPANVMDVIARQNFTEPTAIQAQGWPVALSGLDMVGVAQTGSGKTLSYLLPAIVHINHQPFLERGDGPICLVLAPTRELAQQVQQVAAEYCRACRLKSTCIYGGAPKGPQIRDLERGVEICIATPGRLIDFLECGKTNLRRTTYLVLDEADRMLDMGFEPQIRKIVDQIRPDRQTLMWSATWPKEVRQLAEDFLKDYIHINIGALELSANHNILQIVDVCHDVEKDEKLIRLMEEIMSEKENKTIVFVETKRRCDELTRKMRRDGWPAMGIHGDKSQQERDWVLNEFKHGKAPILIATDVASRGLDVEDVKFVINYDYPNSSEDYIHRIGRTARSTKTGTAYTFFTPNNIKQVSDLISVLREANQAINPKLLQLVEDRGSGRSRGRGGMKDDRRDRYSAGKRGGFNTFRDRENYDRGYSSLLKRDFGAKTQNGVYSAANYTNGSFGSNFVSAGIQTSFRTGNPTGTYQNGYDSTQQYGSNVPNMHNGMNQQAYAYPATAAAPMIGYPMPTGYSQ
UniProt O43143: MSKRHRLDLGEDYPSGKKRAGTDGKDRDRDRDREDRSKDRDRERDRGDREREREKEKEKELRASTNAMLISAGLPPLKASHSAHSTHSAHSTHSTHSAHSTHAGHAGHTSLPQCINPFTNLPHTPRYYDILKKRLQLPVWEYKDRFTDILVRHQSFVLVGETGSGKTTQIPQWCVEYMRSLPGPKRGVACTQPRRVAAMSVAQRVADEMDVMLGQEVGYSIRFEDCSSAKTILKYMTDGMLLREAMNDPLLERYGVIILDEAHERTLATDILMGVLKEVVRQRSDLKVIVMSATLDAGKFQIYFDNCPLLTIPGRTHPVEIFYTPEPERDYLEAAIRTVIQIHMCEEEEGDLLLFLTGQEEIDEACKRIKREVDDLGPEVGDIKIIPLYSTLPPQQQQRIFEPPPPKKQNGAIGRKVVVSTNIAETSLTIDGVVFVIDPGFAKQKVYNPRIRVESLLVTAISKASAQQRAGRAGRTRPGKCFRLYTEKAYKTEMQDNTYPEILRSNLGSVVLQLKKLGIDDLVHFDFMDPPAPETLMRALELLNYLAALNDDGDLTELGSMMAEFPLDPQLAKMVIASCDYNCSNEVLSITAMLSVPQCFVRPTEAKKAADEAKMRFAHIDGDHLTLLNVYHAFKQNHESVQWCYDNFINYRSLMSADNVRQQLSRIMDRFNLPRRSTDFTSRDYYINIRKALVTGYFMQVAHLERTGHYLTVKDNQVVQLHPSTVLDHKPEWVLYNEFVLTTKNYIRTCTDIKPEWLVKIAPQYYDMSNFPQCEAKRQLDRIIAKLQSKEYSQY
UniProt P62140: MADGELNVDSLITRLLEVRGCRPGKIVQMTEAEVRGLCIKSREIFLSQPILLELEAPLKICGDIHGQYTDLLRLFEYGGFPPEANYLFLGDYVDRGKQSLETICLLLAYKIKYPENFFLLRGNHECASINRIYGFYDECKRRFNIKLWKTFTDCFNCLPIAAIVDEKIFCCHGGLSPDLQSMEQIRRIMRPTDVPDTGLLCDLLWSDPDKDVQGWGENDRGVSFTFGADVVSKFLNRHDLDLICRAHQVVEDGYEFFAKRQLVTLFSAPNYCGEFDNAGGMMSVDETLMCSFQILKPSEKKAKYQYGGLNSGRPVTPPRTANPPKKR
UniProt P26599: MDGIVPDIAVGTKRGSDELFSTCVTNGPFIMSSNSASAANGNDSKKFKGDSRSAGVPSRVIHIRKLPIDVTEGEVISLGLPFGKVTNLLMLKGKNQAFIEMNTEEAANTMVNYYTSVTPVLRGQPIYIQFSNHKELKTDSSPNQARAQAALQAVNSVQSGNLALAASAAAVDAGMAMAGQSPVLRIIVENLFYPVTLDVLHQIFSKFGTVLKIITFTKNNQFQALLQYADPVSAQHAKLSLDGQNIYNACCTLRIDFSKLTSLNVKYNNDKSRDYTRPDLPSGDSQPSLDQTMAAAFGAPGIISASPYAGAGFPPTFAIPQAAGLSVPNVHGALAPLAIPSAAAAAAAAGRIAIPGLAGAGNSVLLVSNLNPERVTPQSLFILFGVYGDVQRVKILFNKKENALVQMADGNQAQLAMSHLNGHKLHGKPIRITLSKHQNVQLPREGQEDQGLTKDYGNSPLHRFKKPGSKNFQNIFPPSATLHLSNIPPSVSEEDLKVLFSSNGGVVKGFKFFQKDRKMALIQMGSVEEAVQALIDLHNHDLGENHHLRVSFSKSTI
UniProt P38159: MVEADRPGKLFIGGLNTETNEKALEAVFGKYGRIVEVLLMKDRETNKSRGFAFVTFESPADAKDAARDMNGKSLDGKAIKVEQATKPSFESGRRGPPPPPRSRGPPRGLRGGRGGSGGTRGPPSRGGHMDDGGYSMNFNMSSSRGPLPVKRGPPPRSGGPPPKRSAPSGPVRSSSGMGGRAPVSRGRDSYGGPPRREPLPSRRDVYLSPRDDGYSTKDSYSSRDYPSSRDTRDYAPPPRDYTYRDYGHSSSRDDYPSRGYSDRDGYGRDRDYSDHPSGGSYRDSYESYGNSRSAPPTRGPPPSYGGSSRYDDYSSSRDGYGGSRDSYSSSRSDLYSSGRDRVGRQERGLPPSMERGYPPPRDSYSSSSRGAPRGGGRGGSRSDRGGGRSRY
UniProt Q07955: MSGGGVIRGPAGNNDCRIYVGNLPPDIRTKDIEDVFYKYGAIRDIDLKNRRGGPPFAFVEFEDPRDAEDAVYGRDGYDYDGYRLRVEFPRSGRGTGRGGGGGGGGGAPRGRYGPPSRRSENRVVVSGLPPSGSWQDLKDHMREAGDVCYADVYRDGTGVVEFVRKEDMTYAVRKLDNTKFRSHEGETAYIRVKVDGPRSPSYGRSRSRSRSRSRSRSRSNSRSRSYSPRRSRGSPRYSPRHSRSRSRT

Columns and labels:
Assay in all cases: affinity purification with mass spectrometry
[1] = target: GFP-tagged version of human Aurora-A (human) (UniProt O14965)
[2] = target: GFP-tagged version of human Aurora-A (human) (UniProt O14965); remark: listed apart in the source
[3] = target: T1, GFP-tagged version of human Aurora-A (human), O14965; conditions: remark: other sources report otherwise
T1 chain: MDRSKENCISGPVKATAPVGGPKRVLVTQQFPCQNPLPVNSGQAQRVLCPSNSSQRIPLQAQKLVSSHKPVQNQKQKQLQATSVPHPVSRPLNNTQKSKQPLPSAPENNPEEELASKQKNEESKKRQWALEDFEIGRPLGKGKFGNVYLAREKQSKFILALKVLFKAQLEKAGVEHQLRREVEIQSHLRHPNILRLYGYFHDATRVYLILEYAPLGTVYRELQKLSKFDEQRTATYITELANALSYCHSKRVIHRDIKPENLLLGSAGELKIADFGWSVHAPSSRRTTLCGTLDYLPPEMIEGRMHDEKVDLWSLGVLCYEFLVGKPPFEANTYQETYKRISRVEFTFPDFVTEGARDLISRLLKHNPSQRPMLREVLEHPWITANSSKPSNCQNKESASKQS

Question: CDC5L (from UniProt Q99459 1-802) was tested. Which binding [1] did it give?
Answer: Its binding is “binds”.

Question: With “DDX5 (from UniProt P17844 1-614) (enzyme)” as the molecule, how does the binding [1] read?
Answer: Its binding is “binds”.

Question: “DHX15 (from UniProt O43143 1-795) (enzyme)” was tested. Which binding [1] did it give?
Answer: Its binding is “binds”.

Question: For HNRNPK (from UniProt P61978 1-463), which binding [1] is on record?
Answer: Its binding is “binds”.

Question: How did the binding [1] turn out when “PPP1CB (from UniProt P62140 1-327) (enzyme)” was run?
Answer: Its binding is “binds”.

Question: Which binding [1] does the source give for “PTBP1 (endogenous) (from UniProt P26599 1-557)” here?
Answer: Its binding is “binds”.

Question: Which binding [1] does the source give for RBMX (from UniProt P38159 1-391) here?
Answer: The binding was “binds”.

Question: “SRSF1 (endogenous) (from UniProt Q07955 1-248)” was tested. Which binding [1] did it give?
Answer: Its binding is “binds”.

B1: SRSF7 (endogenous) (protein, UniProt Q16629 1-238)
chain: MSRYGRYGGETKVYVGNLGTGAGKGELERAFSYYGPLRTVWIARNPPGFAFVEFEDPRDAEDAVRGLDGKVICGSRVRVELSTGMPRRSRFDRPPARRPFDPNDRCYECGEKGHYAYDCHRYSRRRRSRSRSRSHSRSRGRRYSRSRSRSRGRRSRSASPRRSRSISLRRSRSASLRRSRSGSIKGSRYFQSPSRSRSRSRSISRPRSSRSKSRSPSPKRSRSPSGSPRRSASPERMD
Question: For B1, which binding [2] is on record?
Answer: Its binding is “binds”.

B2: PPP6C (enzyme, UniProt O00743 1-305)
chain: MAPLDLDKYVEIARLCKYLPENDLKRLCDYVCDLLLEESNVQPVSTPVTVCGDIHGQFYDLCELFRTGGQVPDTNYIFMGDFVDRGYYSLETFTYLLALKAKWPDRITLLRGNHESRQITQVYGFYDECQTKYGNANAWRYCTKVFDMLTVAALIDEQILCVHGGLSPDIKTLDQIRTIERNQEIPHKGAFCDLVWSDPEDVDTWAISPRGAGWLFGAKVTNEFVHINNLKLICRAHQLVHEGYKFMFDEKLVTVWSAPNYCYRCGNIASIMVFKDVNTREPKLFRAVPDSERVIPPRTTTPYFL
Question: B2 was tested. Which binding [2] did it give?
Answer: Its binding is “binds”.

B3: SRSF3 (endogenous), P84103 1-164 (protein)
chain: MHRDSCPLDCKVYVGNLGNNGNKTELERAFGYYGPLRSVWVARNPPGFAFVEFEDPRDAADAVRELDGRTLCGCRVRVELSNGEKRSRNRGPPPSWGRRPRDDYRRRSPPPRRRSPRRRSFSRSRSRSLSRDRRRERSLSRERNHKPSRSFSRSRSRSRSNERK
Question: B3 was tested. Which binding [3] did it give?
Answer: Its binding is “binds”.
